The values below come from article PMC5015018.

Data set [1] concerns the target RsrR holo, oxidised [2Fe-2S]2+ (Streptomyces venezuelae) (UniProt F2RGC9). The data set can be described thus: EMSA. Particulars: EMSA on ice, 10 mM Tris, 60 mM KCl, pH 7.52, 20 ul, 3.5-4 nM DNA, 5% PAGE in 1x TBE, reduced form with 5 mM sodium dithionite in protein and running buffer, recombinant protein, protein details: His (pGS-21a, RsrR-His). A general note: A gel shift assay detects complexes by their altered migration in electrophoresis.

Data set [2] deals with T1, RsrR holo, reduced [2Fe-2S]1+ (Streptomyces venezuelae) (UniProt F2RGC9).
T1 sequence (looked up, limits assumed): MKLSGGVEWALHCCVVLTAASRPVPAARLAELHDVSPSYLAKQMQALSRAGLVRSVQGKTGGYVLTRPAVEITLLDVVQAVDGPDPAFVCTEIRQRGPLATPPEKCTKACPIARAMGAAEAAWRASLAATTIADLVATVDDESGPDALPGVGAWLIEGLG
The data set can be described thus: EMSA. The following applies: reduced [2Fe-2S]1+, 5 mM dithionite, partial re-oxidation not excluded; EMSA on ice, 10 mM Tris, 60 mM KCl, pH 7.52, 20 ul; 3.5-4 nM DNA; 5% PAGE in 1x TBE; reduced form with 5 mM sodium dithionite in protein and running buffer; recombinant protein; protein details: His (pGS-21a, RsrR-His); label: 5' 6-FAM; probe letters rebuilt from the primers and the genome.

Where [3] appears, read: oxidised [2Fe-2S]2+, label: 6-FAM (M13 primers).
[4] abbreviates: data not shown, cluster state not stated, label: 6-FAM, probe letters rebuilt from the primers and the genome.
Where [5] appears, read: oxidised [2Fe-2S]2+, label: 5' 6-FAM, probe letters rebuilt from the primers and the genome.
Setting [6] is: oxidised [2Fe-2S]2+, strong, label: 6-FAM (M13 primers).

The exact form of at least one protein or probe is not confirmed. Weaker means in comparison with the reference protein, sequence or condition of that experiment. For some of these results: Where a protein sequence is shown, tags need not be part of it.

“CTAAAACGACGGCCAGTTCTGTGTCCGAGTCAAAGTCATAGCTGTTTCCTG (double strand) [sven6562/3 Site 4 (half site)]”: the binding result in data set [1] (setting [3]) was “binds more weakly”.

Turning to “CAGGAAACAGCTATGACGCGGGGCGCCGTCGTCTTCTGCTGCTCCGGGTACTGCTCGGTCAGCCGCTTCTTGAACATGGCCTTGAAGGTCACGCCGAATCCGGCCACCGGATTCTGGAAATCAGACACCGTCCGTCTCCTTTCCATCACTCGCAGTAGCAGTATCGGAGGCGCCACTGACAACGAGGTCCCGGTCCTGCCGTGACCTGCGCCGGGGCACGGGCGGCAGGGACTGTCCGGGCTTGGGCGGTACGGGGAAGCCCCCGGCCATCGGGTCGAAGGAGGGCTCGTCGGCGGGCCGGGGCGCGGCCGCCTTCGCCCTGCGGTCGCGGAACAGGTCGACCACGAAGGACAGCAGCAGCAGTCCGAGGACGGCTCCGGCGACGTACAGGACGATGTTGCCGAAGGCGATGTTCTCACTGGCCGTCGTTTTAG (double strand) [sven4273 probe]”, the binding result in data set [1] (setting [4]) is given as “binds”.

For “CAGGAAACAGCTATGACCATCACGAGATCGCCCGCCTCGTTCCGGTACAGGTCGCGAACCTTGCCCGTGTGGAGATGGGTGAGGCCCGGGACCTGGACGGGTTCGGGCTTTTCTACGAATCCGGACACGGTTCCTCCGCGTAGGTTGATCCAGGAGCGTCTCCGATTCTCTCGCACATCCGGACGGCTCCGGACGCCCGCCCCTGTGACTCCCCGCTCAGTCCCTCTTGCAGATGCGGTCGAGGAGGTTCGCGGTGGCCCGCTGGATCCGGGCGTCGACATGGCCGGGCCGGTCGAGCGCCGGGGACCAGGCGAAAGTGCCGGAGGCGAAGACCCAGGCACCCGAAGGCGCCCGGTAGAGGCTCGTCTCCTGGTGCCGGGCCGCCCCGGCGGCATCGCGGTACGGCGAGTGGGCGAGACTGGCCGTCGTTTTAG (double strand) [sven3827 probe]”, the binding result in data set [1] (setting [4]) is “binds”.

For the sequence “CTAAAACGACGGCCAGTCCGATGTCCGAGATAATGTCATAGCTGTTTCCTG (double strand) [sven6562/3 Site 2 (half site)]”, the binding result in data set [1] (setting [3]) is given as “binds more weakly”.

With “CTAAAACGACGGCCAGTCCCAGCTACGAGGTGGCGAAGCAGGCCGCCGAGAAGGCCGGCCTCACGCTCCACGAGGAGTTCGACGGCGAGTTCGCCGCCAAGGTGACCACCGGCCCGTACGAGTGGACCCGGATGGCCGGTATCCAGATCGGCGGCCCCTCCAACAGCTGAGGCAACAACCTCGCGCGGGGCTCACCCGTTAGGACGTGTGGAGACGCGACACGTCCACACAGGGAGCCCCCCGAGATGATCGACACGCCGAACCTGGTGGACCAGTACTGCCACGGGGTGCTCCGCACGGAACTCGGCCTCGGCACCTTCGAGGCCCACCTCGGCGCCCAGCTCGGCGGGAGCTCCGCGCTGCCCGCCGCGGGCACCACCTTCTTCGACACCCAGACCGTCATAGCTGTTTCCTG (double strand) [sven1561 probe]”, in data set [1] (setting [4]), the binding result is “binds”.

On to “CTAAAACGACGGCCAGTGCAAACTCGGATACCCGGTCATAGCTGTTTCCTG (double strand) [sven6562/3 Site 1 (half site)]”, for which, in data set [1] (setting [3]), the binding result is reported as “binds more weakly”.

Take “CAGGAAACAGCTATGACAACAGGGAGAGCTGGTCGACCATCCCGTTGAACACCAGGGAGATCTCGCCCATGAGGCCGTCCGCCTCGTCGGGCAGCCGGGTGCCGAAATCACCGTCCCGCACCGCCGTGAGGCCTGCCAGGAGCTGTCGCAGCTCGGGCTCGCCCACCGCGGCCGGCCCGGGCCGCACCCGGACAGAGGAGCCTTCGGTCGTCATGTCAGACATGCCCCATCCTCGTTCCCCAACACGCTGCCGCTTACGGACCGTTCGGACCCGGTCACCAACTGGCCGTCGTTTTAG (double strand) [sven0372 probe]”: the binding result in data set [1] (setting [4]) is recorded as “binds”.

With “CTAAAACGACGGCCAGTTAATACTCGGATAGTCTGTCATAGCTGTTTCCTG (double strand) [sven6562/3 Site 3 (half site)]”, in data set [1] (setting [3]), the binding result is on record as “binds more weakly”.

Take “CAGGAAACAGCTATGACACCTGAATCTCGCATGACCCTCCGATGATCGGCTCGTCCCCGCACCAACCCCGTTGACGGCGATCCGATTCCCGGCAAGCGGACGCAAGACCGCATGACCCGCGGGAACACGGCTAGGGGCTGTCCGGGAAGGCCTCGGGGCCGCCCTCCGCAGGGGCGAACTCGCACCAGACGATCTTGCCGGGATGGCGCGCCCCCACGCCCCAGCGGTCGGCCAGGGCGCCGACGAGGAGCAGGCCCCTGCCCGACTCGCCGGACGGCTCCCGGACGGCCGGGGTCCCGTCGCCGCTGTCGTGGACCTCGACACGGAGCGGGCCGGGCCGCTCCAGGTACAGGTGGAGGCGGTAGCCGCGGCCGGGCGGGACGCCGTGCCGGAGGGCGTTGGTGGCGAGTTCGCTCACGCACACCAGTACGTCGTCCGCACGCGCGTCCAGACCCCAGTCGGCGAGCGCCTTGCGGGCGAAGTCGCGGGCGAGGGGTACGGACCGGCGTTCGCGGCGGTAGAAGGCCTCGCGGAACAGGGGGAGTTCGTCGCTCATGACGCTCACGGTGGCCTGCGGCGGCCCACCCGCCCCAGGGCATCGAGCCGTACAAATTCTTTGTACGGGTCCGGAACGCGACTGGCCGTCGTTTTAG (double strand) [sven5174 probe]”: the binding result in data set [1] (setting [4]) is on record as “binds”.

As to “CAGGAAACAGCTATGACAGCACCAGCCGCTCGTCGAACGCGGCGGCCACCTCGACGGCGATCCGCAGGGCCCGGGCCGCGCCCGGTGACTCGTCGTATCCGAGTACGACCGACATCTCAGCGCCCCTTCCGGCCGTGGACCAGGTCGGGGTCGGCCACGCCCGGCCGCTCCGCCCAGAAGGCGGGCGACCGCAGCCGCCACACGATCATGACGAACTGGCCGTCGTTTTAG (double strand) [sven0247 probe (class 2)]”, in data set [1] (setting [5]), the binding result is recorded as “binds”.

Turning to “CAGGAAACAGCTATGACCCGTCCGGCGCCCCGGGTGGCCCCGGCGACCAGGCAGATCCGTCCGCGCAGGCTGTTCGTGTCCTTCTTCTCCGTCGTCATGCGCACCAGCGTGACAGGGAAATCAGACATCTTCTGTCTGGTTTCATTTCGGGCTTTCCGGGTGCGTCGCACCCCCCGAACCAGGATGCTGGTCCCGTGATGGACGAGACGGAGTTCTGGGAGATCATCGACGCCAGCCGCGAGGAAGCCGAGGGCGACCCCGAGGAACAGGCCGACCTGCTCGTGGAGCGGCTGACCCGGCTGGACCCCGACTCCGTGCTCGACTACGCCCGCCATTTCGAGGCCCGCTACAACCGCGCGTACCTCTGGGATCTGTGGGGCGCGGCGGCCGTGCTGTTCGACGGGGCGGGCGAGGAGAACTGGCCGTCGTTTTAG (double strand) [sven1847/8 intergenic probe]”, the binding result is on record as “binds” in data set [1] (oxidised [2Fe-2S]2+, aerobic, label: 5' 6-FAM, probe letters rebuilt from the primers and the genome); “binds more weakly” in data set [2].

Regarding “CAGGAAACAGCTATGACCGTGCAGCTCAGCGAGCCGGGCCGCCGGCACCGGCCTGCTCGCCGCCGTCAGGACCACACAGCAGTGGAGCGCCCACTCGACGCCACCGGACAGTTTCATGTCGCCTCCCCATTTGACTCGGACACAGACTATCCGAGTATTATCTCGGACATCGGGTATCCGAGTTTGCGTCCCCTGGGCCCCGGCCCACGAAGGAAGGCACACCATGAAGATCACCGTCATCGGCGGCACCGGCCTGATCGGCTCCCAGCTCGTCACCACGCTCCGGAACGCCGGCCACGACGTGGTCGCCGCGTCCCTCTCCTCGGGGGTCGACCTGCTCACCGGCGCCGGCCTGGACGACGCCCTCGCGGGCGCCCACACGGTCGTCAATGTCAGCAACTCCCCGACCTTCGACGAACTGGCCGTCGTTTTAG (double strand) [sven6563 probe]”, the binding result in data set [1] (setting [4]) is recorded as “binds”.

For “CTAAAACGACGGCCAGTGCAAACTCGGATACCCGATGTCCGAGATAATGTCATAGCTGTTTCCTG (double strand) [sven6562/3 Site 1-2 (class 1 site)]”, the binding result in data set [1] (setting [6]) is listed as “binds”.

As for “CTAAAACGACGGCCAGTTAATACTCGGATAGTCTGTGTCCGAGTCAAAGTCATAGCTGTTTCCTG (double strand) [sven6562/3 Site 3-4 (class 1 site)]”, the binding result in data set [1] (setting [6]) is recorded as “binds”.

As for “CAGGAAACAGCTATGACAAGGTCGCGACGCACACCATGATCATGACGGCGACGAGGGCCGCCATGGGGATCTCGGAGACCAACGGTCCGAAGACGAGGCACAGCACCATCAGGAAGACGCCCGCGAGGAAGGTGGAGAGGCGGGTACGGGCCCCGGACACCTTCACGTTGATCATCGTCTACTGGCCGTCGTTTTAG (double strand) [sven0519 probe (class 2)]”, the binding result in data set [1] (setting [5]) was “binds”.
